Measured data: PubChem BioAssay AID602196 (INSERM, 2012)
Shown is one part, drawn at random, of about 23,000 deposited reagents. Over the whole deposit, 455 (2%) are marked active. 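Active includes both protection and sensitisation; some change values fall well beyond the stated -50 to +50 range.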 A number with no mark means an inactive call. The numbers tell different reagents against one gene apart. No sequences are given here. Not stated in the record: the amount of reagent.

- Aim: 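Genes whose knock-down alters cisplatin killing of lung cancer cells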
- Cells: human A549 lung cancer cells
- Knock-down reagent: siRNA pair against human genes
- Timing: 48 h transfection before cisplatin; time from cisplatin to read-out not stated
- Challenge: cisplatin at a dose killing half of control-siRNA cells; exact dose and duration not given
- Read-out: 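Shift in cisplatin death relative to control siRNA, from -50 (all cells die) to +50 (no cells die); siRNAs harmful on their own scored 0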
- Direction: two-siRNA summed score (-2 to +2): higher = both siRNAs protect from cisplatin killing; -2 means both sensitise; mean protection from cisplatin (shift in death) and protection from cisplatin (shift in death), siRNA C and protection from cisplatin (shift in death), siRNA D: higher = protection from cisplatin killing
- Hit rule: 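Each siRNA scores 0 if harmful alone by LDH or WST-1, otherwise +1 if it reduces and -1 if it increases cisplatin killing; a gene is active when both siRNAs agree (sum +2 or -2)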
- Meaning of the calls: active = both siRNAs shift cisplatin killing the same way; inactive = no consistent shift, or siRNA harmful alone

| Gene | reagent no. | two-siRNA summed score (-2 to +2) | mean protection from cisplatin (shift in death) (%) | protection from cisplatin (shift in death), siRNA C (%) | protection from cisplatin (shift in death), siRNA D (%) |
| --- | --- | --- | --- | --- | --- |
| ZNF394 (zinc finger protein 394) | 1 | 0 | -1 | -3.5 | 1.5 |
| RIBC1 (RIB43A domain with coiled-coils 1) | 1 | 0 | -3.9 | 4.8 | -12.6 |
| KDELR2 (KDEL endoplasmic reticulum protein retention receptor 2) | 1 | 0 | 1.8 | 6.4 | -2.8 |
| HSD3B1 | 1 | 0 | 3.8 | 11.9 | -4.3 |
| MYOM1 (myomesin 1) | 1 | 0 | 6.1 | 17.2 | -5 |
| RFXAP (regulatory factor X associated protein) | 1 | 1 | 12.4 | 6.9 | 17.9 |
| LOC152905 | 1 | 0 | 3.8 | 0.1 | 7.4 |
| LOC401583 | 1 | 0 | 11.1 | 6.9 | 15.3 |
| PSMD11 (proteasome 26S subunit, non-ATPase 11) | 1 | 1 | 5.2 | -14.4 | 24.7 |
| CUEDC2 (CUE domain containing 2) | 1 | 0 | -4.4 | -6.6 | -2.3 |
| LOC145414 | 1 | 0 | -0.2 | -5.2 | 4.8 |
| LOC390231 | 1 | 2 (active) | 14.4 | 19.2 | 9.6 |
| MIB2 (MIB E3 ubiquitin protein ligase 2) | 1 | 1 | 12.2 | 20.7 | 3.7 |
| DDX46 (DEAD-box helicase 46) | 1 | -1 | -2.6 | 7 | -12.1 |
| LINC01018 (long independently transcribed non-coding RNA 1018) | 1 | 0 | 8.7 | -2 | 19.4 |
| TMEM220 (transmembrane protein 220) | 1 | 0 | 4.3 | -1.3 | 9.8 |
| IFNA1 (interferon alpha 1) | 1 | 0 | -8.6 | -16.3 | -0.9 |
| SMR3A (submaxillary gland androgen regulated protein 3A) | 1 | 0 | 1.1 | 1.3 | 0.9 |
| SMR3A (submaxillary gland androgen regulated protein 3A) | 2 | 0 | 1.9 | 4 | -0.1 |
| DPY19L3-DT (DPY19L3 divergent transcript) | 1 | 1 | 10.4 | -11.3 | 32.1 |
| MAGOHB (mago homolog B, exon junction complex subunit) | 1 | 0 | -0.6 | -7.7 | 6.4 |
| PTPN23 (protein tyrosine phosphatase non-receptor type 23) | 1 | 0 | 2.3 | -7.5 | 12 |
| CCER1 (coiled-coil glutamate rich protein 1) | 1 | 0 | -0.3 | 8.8 | -9.4 |
| KHDRBS2 | 1 | 1 | 9 | 12.1 | 5.9 |
| LOC391819 | 1 | 1 | 5.2 | 16.8 | -6.5 |
| LONRF1 (LON peptidase N-terminal domain and ring finger 1) | 1 | 0 | 8.8 | 8.3 | 9.4 |
| ERN1 (endoplasmic reticulum to nucleus signaling 1) | 1 | 0 | 1.4 | 9.8 | -7 |
| MYOM3 (myomesin 3) | 1 | 0 | -2.6 | -3.6 | -1.6 |
| PNPT1 (polyribonucleotide nucleotidyltransferase 1) | 1 | 0 | 5.8 | 4.3 | 7.2 |
| ELMO2 (engulfment and cell motility 2) | 1 | 0 | 3.1 | -1 | 7.3 |
| JMJD6 | 1 | -1 | -6.8 | -25.2 | 11.7 |
| DCAF13 (DDB1 and CUL4 associated factor 13) | 1 | 0 | -2.8 | -3 | -2.5 |
| LZIC (leucine zipper and CTNNBIP1 domain containing) | 1 | 0 | 2.3 | -0.1 | 4.7 |
| MAL (mal, T cell differentiation protein (MAL blood group)) | 1 | 0 | 8.9 | 9.5 | 8.3 |
| IPO8 (importin 8) | 1 | 0 | -4.4 | 3.2 | -12.1 |
| RRAGD (Ras related GTP binding D) | 1 | 0 | -1.6 | 2.6 | -5.8 |
| LOC440371 | 1 | 0 | 5.6 | 6.6 | 4.6 |
| LOC152663 | 1 | 0 | -4.3 | 2.8 | -11.5 |
| TP53AIP1 (tumor protein p53 regulated apoptosis inducing protein 1) | 1 | 0 | 4.6 | 6.7 | 2.4 |
| ADH6 (alcohol dehydrogenase 6 (class V)) | 1 | 0 | -9.3 | -5 | -13.6 |
| IAPP (islet amyloid polypeptide) | 1 | -1 | -33.9 | -46.4 | -21.3 |
| PEX14 (peroxisomal biogenesis factor 14) | 1 | 0 | 12.1 | -2.9 | 27.1 |
| LOC389072 | 1 | 0 | 1.1 | 9 | -6.8 |
| LOC205655 | 1 | -1 | 0 | 11.1 | -11 |
| OR52H1 (olfactory receptor family 52 subfamily H member 1) | 1 | 0 | -4.8 | 11.8 | -21.5 |
| MPST (mercaptopyruvate sulfurtransferase) | 1 | 0 | 0 | 14.3 | -14.3 |
| LOC440418 | 1 | 1 | 7.2 | 1.5 | 12.9 |
| WNT5B (Wnt family member 5B) | 1 | 0 | 1.6 | -4.6 | 7.8 |
| CACNA1B (calcium voltage-gated channel subunit alpha1 B) | 1 | 0 | -3.9 | -7.4 | -0.4 |
| SLC35F6 | 1 | 0 | 0.4 | -11 | 11.8 |
| SPATA4 (spermatogenesis associated 4) | 1 | 0 | 3.8 | 10 | -2.4 |
| DYRK1B | 1 | 0 | 23.5 | 36.5 | 10.5 |
| SHOX (SHOX homeobox) | 1 | 0 | 4.6 | 7.6 | 1.6 |
| IFNA13 (interferon alpha 13) | 1 | -1 | -19.2 | -16.3 | -22.1 |
| NDUFC1 (NADH:ubiquinone oxidoreductase subunit C1) | 1 | -1 | -13 | 3.8 | -29.9 |
| YJU2B (YJU2 splicing factor homolog B) | 1 | 0 | -4 | -19.9 | 11.8 |
| GLA (galactosidase alpha) | 1 | -2 (active) | -23.6 | -16.9 | -30.3 |
